# This is one part of the list. Shown are side measurements of this screen, not its main read-out; they come without a call. Compounds called inactive in the main read-out are mostly missing here. The note in brackets gives the kind of curve behind each potency; many fits are weak.
# Experiment: qHTS Assay for Lipid Storage Modulators in Drosophila S3 Cells;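 for cell number change: cells counted by Cell Tracker Red CMTPX staining in the red channel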
# Conditions: BODIPY lipid droplet fluorescence, 18-24 h; for cell number change: measured here: cell count max response, cells fed with added oleic acid
# In short: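 Laser-scanning cytometry quantifies lipid droplet accumulation (500–530 nm total intensity; droplet/cell object ratio) in oleic acid-fed (400 uM added) Drosophila S3 cells treated with a concentration series. 20 uM Triacsin C defined 100% inhibition.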
# [1] = measured here: cell number channel AC50, cells fed with added oleic acid
# [2] = measured here: lipid fluorescence (Fed channel) AC50, cells fed with added oleic acid
SMILES,cell number change [%],AC50 [1],AC50 [2]
O=S(=O)(Nc1ccc(-c2ccc3nncn3n2)cc1)c1cccc(F)c1,-37,"14.6 µM [falling, single point]","23.1 µM [falling, single point]"
CC(C)CC(NS(=O)(=O)c1cc(C(=O)O)ccc1Cl)C(=O)O (stereo unspecified),-24,"3.26 µM [falling, full curve, poor fit]",
COC(=O)Nc1nc(C)c(C(=O)c2ccccc2)s1,33.1,,"6.51 µM [falling, partial curve, poor fit]"
COc1ccc(CNC(=S)Nc2ccc(F)c(Cl)c2)cc1OC,3.29,,
Fc1cccc(Cl)c1/C=N/Nc1ccccn1,52.6,"1.64 µM [rising, partial curve]","0.0731 µM [rising, full curve, poor fit]"
OCCC1CN(CC2CC2)CCN1Cc1ccc(F)c(F)c1 (stereo unspecified),7.09,,"6.51 µM [falling, single point]"
COc1ccc(-c2nc(NC(=O)CSc3nnc4ccccn34)ns2)cc1,10.8,,"0.00461 µM [falling, full curve, poor fit]"
CCC(C)NC(=O)c1cc2c(=O)n3cccc(C)c3nc2s1 (stereo unspecified),34.2,"9.2 µM [rising, partial curve, poor fit]",
CCN(CC(=O)NCc1ccc(Cl)cc1)C(=O)CSCC(=O)Nc1ccc(OC)cc1,,,"29.1 µM [falling, single point]"
O=C(CN1CCN(c2ccccn2)CC1)NCCc1ccccc1,49.1,,"29.1 µM [rising, partial curve, poor fit]"
CCC(NC(=O)CSc1nnnn1C1CC1)c1ccc(Br)cc1 (stereo unspecified),1.87,"0.82 µM [rising, single point]","0.82 µM [rising, single point]"
CC(C)(CNC(=O)c1ccc(Cl)c(S(=O)(=O)N2CCc3ccccc3C2)c1)N1CCOCC1,4.35,,
CCOc1ccc(/C=C/C(=O)NCc2ccccc2)cc1,85.9,"29.1 µM [rising, single point]","0.517 µM [rising, partial curve, poor fit]"
CCc1nc2ccccc2c(C(=O)OCC(=O)N(CC(C)C)c2c(N)n(Cc3ccccc3)c(=O)[nH]c2=O)c1C,2.76,,"1.3 µM [rising, partial curve]"
CCn1nc(C)c(/C=N\NC(=O)c2ccc3c(c2)OCO3)c1C,32.8,"0.0058 µM [rising, full curve, poor fit]","0.00461 µM [rising, full curve, poor fit]"
O=C(NCc1ccccc1)c1ccc(-c2ccccc2C(F)(F)F)o1,19,,"5.17 µM [rising, partial curve]"
CCOc1ncccc1C(=O)OCC(=O)NC1CC1,-15.1,,"23.1 µM [falling, partial curve]"
O=[N+]([O-])c1ccc(Cl)c(S(=O)(=O)Nc2cccc(-c3ccc(N4CCCC4)nn3)c2)c1,104,"29.1 µM [rising, single point]",
O=C(COC(=O)c1ccc(Br)o1)NCc1cccs1,-2.38,,
CCOC(=O)C1CCCN(CC(O)COc2cccc(C)c2)C1 (stereo unspecified),-19.3,,"0.82 µM [falling, full curve, poor fit]"
NC(=O)CNC(=O)C1CCN(S(=O)(=O)c2ccc(-n3cnnn3)cc2)CC1,3.85,,

SMILES,cell number change [%],AC50 [1],AC50 [2]
Cn1cc(Br)c(C(=O)NNC(=O)c2ccc(Cl)cc2)n1,31.1,"0.116 µM [rising, full curve, poor fit]","0.116 µM [rising, full curve, poor fit]"
CCC(=O)Nc1ccc(C(=O)CSc2nnc(-c3ccc(O)cc3)n2CC2CCCO2)cc1 (stereo unspecified),13.4,,
O=C(CN1C(=O)c2ccccc2S1(=O)=O)Nc1ccccn1,8.03,,
CCOC(=O)C1CCN(C(=O)CCN2C(=O)C3C4C=CC(C4)C3C2=O)CC1 (stereo unspecified),19.4,,
CCC(=O)NC(=S)Nc1ccc(-c2nc3ccccc3s2)cc1,,"1.3 µM [rising, partial curve]","0.58 µM [rising, single point]"
COc1cc(OC)cc(C(=O)NCCOC23CC4CC(CC(C4)C2)C3)c1,-47.2,"9.2 µM [falling, partial curve, poor fit]","7.31 µM [falling, partial curve, poor fit]"
Cc1cc(NC(=O)CSc2nc3c(C)c(C)ccc3cc2C)no1,,"0.184 µM [rising, full curve, poor fit]","1.16 µM [rising, single point]"
COc1ccc(/C(N)=N/OC(=O)c2c(-c3ccccc3Cl)noc2C)cc1OC,-7.51,,
CC(Sc1nnnn1C)C(=O)NC(=O)NC1CCCCC1 (stereo unspecified),1.85,,
CSc1nnc2c3ccccc3n(Cc3ccccc3)c2n1,-13.5,,
COc1ccc(CCNC(=O)c2cc3c(=O)n(C)c4ccccc4c3n2C)cc1OC,-12.6,,"29.1 µM [falling, single point]"
NC(=O)c1cc(S(=O)(=O)N2CCCC2)ccc1OCCOc1ccccc1,7.38,,"6.51 µM [rising, single point]"
CC(C(Sc1ccccc1N)c1ccccc1)[N+](=O)[O-] (stereo unspecified),-52.1,"11.6 µM [falling, partial curve]","18.4 µM [falling, partial curve]"
O=C(O)Cn1cc(C(=S)N2CCOCC2)c2ccccc21,,,"0.259 µM [falling, partial curve, poor fit]"
CCOC(=O)c1c(C)n(C)c2ccc(OCC(O)Cn3c(C)nc4ccccc43)cc12 (stereo unspecified),,"2.31 µM [rising, partial curve]","2.31 µM [rising, partial curve]"
CSc1ccccc1NC(=O)COc1ccc(S(=O)(=O)N2CCCC2)cc1,,,"0.58 µM [falling, single point]"
CC(=O)Nc1cccc(/C(C)=N/NC(=O)c2c(-c3ccccc3Cl)noc2C)c1,-64.9,"18.4 µM [falling, single point]","18.4 µM [falling, single point]"
CN(CCCC1CCCC1)C(=O)c1cc(COc2c(F)cccc2F)on1,,,"29.1 µM [falling, partial curve]"
COc1cc(C(=O)NNC(=O)c2cc(S(=O)(=O)N(C)C)ccc2N2CCCC2)cc(OC)c1OC,9.64,,
CCC(CC)c1nnc(NC(=O)c2nc3nc(C)cc(C)n3n2)s1,-74.9,"20.6 µM [falling, single point]","9.2 µM [falling, partial curve]"
CC(=O)c1cccc(NC(=O)N2CCCC2C(=O)NCc2ccc3c(c2)OCO3)c1 (stereo unspecified),4.14,"2.59 µM [falling, single point]","3.26 µM [falling, single point]"

# Part of the list above in order of count of non-hydrogen atoms, largest number first:
SMILES,cell number change [%],AC50 [1],AC50 [2]
COc1ccc(CCNC(=O)c2cc3c(=O)n(C)c4ccccc4c3n2C)cc1OC,-12.6,,"29.1 µM [falling, single point]"
COc1cc(OC)cc(C(=O)NCCOC23CC4CC(CC(C4)C2)C3)c1,-47.2,"9.2 µM [falling, partial curve, poor fit]","7.31 µM [falling, partial curve, poor fit]"
O=C(CN1C(=O)c2ccccc2S1(=O)=O)Nc1ccccn1,8.03,,

# Later entries

SMILES,cell number change [%],AC50 [1],AC50 [2]
COc1cc(/C=C(\C#N)C(=O)Nc2cccc(C(=O)O)c2)ccc1OCc1ccc(F)cc1,-22.2,,
Cc1cc(OC(=O)c2cccc([N+](=O)[O-])c2)c(C)cc1CN1CCOCC1,-36.2,"32.6 µM [falling, single point]","1.03 µM [falling, single point]"
COc1ccc(NC(=O)c2cc(C(C)C)on2)c(OC)c1,,"3.66 µM [rising, partial curve, poor fit]",
CN1C2C=C(N(CCc3ccccc3)C(=O)c3ccc(Cl)cc3)CC1CC2 (stereo unspecified),26.6,,"0.146 µM [rising, full curve, poor fit]"
O=C(OCC1OC(n2ccc(=O)[nH]c2=O)C(O)C1OC(=O)c1ccccc1)c1ccccc1 (stereo unspecified),,,"0.82 µM [falling, single point]"
C=CCN1C(=O)C2C(C(=O)NC3CCCC3)C3C=CC2(O3)C1C(=O)NC1CCCC1 (stereo unspecified),27.8,"4.11 µM [rising, full curve, poor fit]",
Cc1cc(C)c(NC(=O)CSc2nnc(CNC(=O)c3ccccc3F)o2)c(C)c1,3.4,,"29.1 µM [rising, single point]"
Cc1ccc(-n2c(Cc3cccn3C)nnc2SCC(=O)N2CCc3ccccc32)cc1,6.69,,
CN1CCN(C(=O)c2cc(=O)c3cc(Cl)cc(Cl)c3o2)CC1,18.3,,
Cn1c(Cc2cccs2)n[nH]c1=S,11,,"0.146 µM [falling, full curve, poor fit]"
COc1ccc(OCc2nnc(SCC(=O)N3CCCC3)o2)cc1,20,,
Cn1c(=O)c2c(nc(Br)n2CCCc2ccccc2)n(C)c1=O,-40.8,"18.4 µM [falling, partial curve]","16.4 µM [falling, partial curve]"
CSc1ccc(-c2nc(CSCC(=O)N3CCOCC3)c(C)o2)cc1,-2.93,"0.146 µM [falling, full curve, poor fit]",
O=C(C1=C(O)C(=O)N(c2nccs2)C1c1ccccc1)c1cc2ccccc2o1 (stereo unspecified),22.2,,
Cc1ccccc1-n1c(SCC(=O)N/N=C/C=C/c2ccccc2[N+](=O)[O-])nc2ccccc2c1=O,-5.97,,
CS(=O)(=O)Cc1ccc(C(=O)NCC2(N3CCCCC3)CCCCC2)cc1,25,,
Cc1nc2ccc(-c3nc4ccccc4o3)cc2[nH]1,-16.1,,"0.82 µM [falling, full curve, poor fit]"
CC(=O)NCc1ccc(C(=O)CSc2nnc(-c3ccncc3)n2Cc2ccccc2)o1,28.1,,"13 µM [rising, partial curve, poor fit]"
O=c1c2ccccc2oc2nc(-c3ccco3)n(Cc3ccccc3)c(=O)c12,,"0.92 µM [rising, partial curve]","0.411 µM [rising, partial curve]"
